# From US12605461B2, “Hydrogel compositions and uses thereof” (priority 2019, dated 2026)
# At least one compound was matched to its structure with a doubt left.
# Test system: BT474 cells
# Assay: Drug screening, BT474 (RealTime-Glo MT)
# Format: cell-based, human
# Experimental: The following example describes experiments conducted to calculate IC50 values using a non-linear fit in Graphpad Prism by GraphPad Software Inc.
# Cells grown in 2D were dosed starting after 24 h with either EHT-1864, AZD6482, Maritoclax, ZSTK474, Afatinib, TW-37, ABT-199, ABT-263 and Temsirolimus between 50 nM and up to 20 μM using an Hewlett-Packard (HP) D300 digital dispenser containing up to 0.2% DMSO then treated again 48 h following the first dose and ended after 72 h of treatment. Cells grown in 3D were dosed after 14 days with up to 0.2% DMSO every 48 h for 7 days. Cell viability was assessed by removing media and replacing it with 100 μL of sterile RealTime-Glo MT (Promega) which was diluted 1000× in media warmed to 37° C. After 1 h luminescence was detected using a Tecan microplate reader (Life Sciences) with 1 second integration time. Cell viability was calculated by subtracting background luminescence from all groups; treatment was compared to control wells, which received up to 0.2% DMSO. Data represents 3 independent replicates consisting of different cell passages for each condition to calculate the mean and standard deviation of cell viability.
smiles,measurement,value
CN(C)C/C=C/C(=O)Nc1cc2c(Nc3ccc(F)c(Cl)c3)ncnc2cc1O[C@H]1CCOC1 [afatinib],"cell response between HA-oxime, Matrigel and 2D TCPS",cell response did not always differ between the 3 culture conditions
